Source: patent publication US6710062B1, “Cyanomethylene compounds, process for producing the same, and agricultural or horticultural bactericide” (Otsuka Chemical Co., Ltd., priority 1999, dated 2004)
Some of these results come from one statement about several compounds together.

What follows are compounds tested on powdery mildew pathogen (Erysiphe graminis f. sp. tritilci) (assay: Fungicidal test for controlling of wheat powdery mildew (Test Example 2)). Conditions: test solution 200 ppm sprayed on wheat seedlings (Shirasagi), conidia sprinkled, 18° C. for 7 days, first leaf scored 0-10, compared with untreated plants.
Format: in vivo

Row | Structure (SMILES) | percent disease control value
1 | N#CC(Sc1cccc(Cl)c1Cl)=C1SCCN1c1ccccc1 [Compound 58] | ≥ 50%
2 | N#CC(Sc1cc(Cl)ccc1Cl)=C1SCCN1c1ccccc1 [Compound 60] | ≥ 50%
3 | Cc1ccc(C)c(SC(C#N)=C2SCCN2c2ccccc2)c1 [Compound 64] | ≥ 50%
4 | Cc1cc(C)cc(SC(C#N)=C2SCCN2c2ccccc2)c1 [Compound 66] | ≥ 50%
5 | Cc1cc(C)cc(SC(C#N)=C2SCCN2c2ccccc2Cl)c1 [Compound 67] | ≥ 50%
6 | N#CC(Sc1cccc(C(F)(F)F)c1)=C1SCCN1c1ccccc1 [Compound 98] | ≥ 50%
7 | N#CC(Sc1cc(C(F)(F)F)ccc1Cl)=C1SCCN1c1ccccc1 [Compound 105] | ≥ 50%
8 | N#CC(Sc1cc(C(F)(F)F)ccc1F)=C1SCCN1c1ccccc1 [Compound 107] | ≥ 50%
9 | Cc1ccccc1N1CCSC1=C(C#N)Sc1cc(C(F)(F)F)ccc1F [Compound 118] | ≥ 50%
10 | N#CC(Sc1cc(C(F)(F)F)ccc1F)=C1SCCN1c1ccccc1Cl [Compound 119] | ≥ 50%

These compounds were tested on cucumber powdery mildew (assay: Fungicidal test for control of cucumber powdery mildew (Test Example 1)). Conditions: sample solution 200 ppm spread over potted cucumber, spores sprayed, checked after 10 days, compared with untreated plant.
Format: in vivo

Row | Structure (SMILES) | percent disease control value
11 | CCc1ccccc1N1CCSC1=C(C#N)Sc1ccccc1 [Compound 52] | ≥ 50%
12 | COc1cccc(SC(C#N)=C2SCCN2c2ccccc2OC)c1 [Compound 56] | ≥ 50%
13 | COc1cccc(SC(C#N)=C2SCCN2c2ccccc2C)c1 [Compound 57] | ≥ 50%
14 | N#CC(Sc1cccc(Cl)c1Cl)=C1SCCN1c1ccccc1 [Compound 58] | ≥ 50%
15 | N#CC(Sc1cccc(Cl)c1Cl)=C1SCCN1c1ccccc1Cl [Compound 59] | ≥ 50%
16 | N#CC(Sc1cc(Cl)ccc1Cl)=C1SCCN1c1ccccc1 [Compound 60] | ≥ 50%
17 | N#CC(Sc1cc(Cl)ccc1Cl)=C1SCCN1c1ccccc1Cl [Compound 61] | ≥ 50%
18 | Cc1ccc(C)c(SC(C#N)=C2SCCN2c2ccccc2)c1 [Compound 64] | ≥ 50%
19 | Cc1ccc(C)c(SC(C#N)=C2SCCN2c2ccccc2Cl)c1 [Compound 65] | ≥ 50%
20 | Cc1cc(C)cc(SC(C#N)=C2SCCN2c2ccccc2)c1 [Compound 66] | ≥ 50%
21 | Cc1cc(C)cc(SC(C#N)=C2SCCN2c2ccccc2Cl)c1 [Compound 67] | ≥ 50%
22 | COc1ccccc1N1CCSC1=C(C#N)Sc1cccc(Cl)c1Cl [Compound 74] | ≥ 50%
23 | Cc1ccccc1N1CCSC1=C(C#N)Sc1cc(Cl)ccc1Cl [Compound 75] | ≥ 50%
24 | COc1ccccc1N1CCSC1=C(C#N)Sc1cc(Cl)ccc1Cl [Compound 76] | ≥ 50%
25 | Cc1ccc(C)c(SC(C#N)=C2SCCN2c2ccccc2C)c1 [Compound 77] | ≥ 50%
26 | COc1ccccc1N1CCSC1=C(C#N)Sc1cc(C)ccc1C [Compound 78] | ≥ 50%
27 | Cc1cc(C)cc(SC(C#N)=C2SCCN2c2ccccc2C)c1 [Compound 79] | ≥ 50%
28 | COc1ccccc1N1CCSC1=C(C#N)Sc1cc(C)cc(C)c1 [Compound 80] | ≥ 50%
29 | N#CC(Sc1ccccc1)=C1SCCN1c1ccccc1C#N [Compound 90] | ≥ 50%
30 | CCOc1ccccc1N1CCSC1=C(C#N)Sc1ccccc1 [Compound 93] | ≥ 50%
31 | N#CC(Sc1ccccc1)=C1SCCN1c1ccccc1[N+](=O)[O-] [Compound 94] | ≥ 50%
32 | N#CC(Sc1ccccc1)=C1SCCN1c1cc(Cl)ccc1Cl [Compound 95] | ≥ 50%
33 | N#CC(Sc1cccc(F)c1)=C1SCCN1c1ccccc1 [Compound 96] | ≥ 50%
34 | N#CC(Sc1cccc(Br)c1)=C1SCCN1c1ccccc1 [Compound 97] | ≥ 50%
35 | CC(C)c1cccc(SC(C#N)=C2SCCN2c2ccccc2)c1 [Compound 99] | ≥ 50%
36 | Cc1ccc(Cl)cc1SC(C#N)=C1SCCN1c1ccccc1 [Compound 101] | ≥ 50%

Row | Structure (SMILES) | percent disease control value
37 | COc1ccc(OC)c(SC(C#N)=C2SCCN2c2ccccc2)c1 [Compound 102] | ≥ 50%
38 | N#CC(Sc1cc(C(F)(F)F)ccc1Cl)=C1SCCN1c1ccccc1 [Compound 105] | ≥ 50%
39 | N#CC(Sc1cc(C(F)(F)F)ccc1F)=C1SCCN1c1ccccc1 [Compound 107] | ≥ 50%
40 | N#CC(Sc1cccc(Cl)c1)=C1SCCN1c1ccccc1C#N [Compound 109] | ≥ 50%
41 | Cc1ccc(C)c(SC(C#N)=C2SCCN2c2ccccc2C#N)c1 [Compound 112] | ≥ 50%
42 | Cc1cc(C)cc(SC(C#N)=C2SCCN2c2ccccc2C#N)c1 [Compound 113] | ≥ 50%
43 | COc1cccc(SC(C#N)=C2SCCN2c2ccccc2C#N)c1 [Compound 114] | ≥ 50%
44 | Cc1ccccc1N1CCSC1=C(C#N)Sc1cc(C(F)(F)F)ccc1F [Compound 118] | ≥ 50%
45 | N#CC(Sc1cc(C(F)(F)F)ccc1F)=C1SCCN1c1ccccc1Cl [Compound 119] | ≥ 50%
46 | COc1ccccc1N1CCSC1=C(C#N)Sc1cc(C(F)(F)F)ccc1F [Compound 120] | ≥ 50%
47 | N#CC(Sc1cc(C(F)(F)F)ccc1F)=C1SCCN1c1ccccc1C#N [Compound 121] | ≥ 50%
48 | Cc1cccc(SC(C#N)=C2SCCN2c2ccccc2)c1C [Compound 122] | ≥ 50%
49 | Cc1ccccc1N1CCSC1=C(C#N)Sc1cc(C(F)(F)F)ccc1Cl [Compound 124] | ≥ 50%
50 | N#CC(Sc1cc(C(F)(F)F)ccc1Cl)=C1SCCN1c1ccccc1Cl [Compound 125] | ≥ 50%
51 | COc1ccccc1N1CCSC1=C(C#N)Sc1cc(C(F)(F)F)ccc1Cl [Compound 126] | ≥ 50%
52 | N#CC(Sc1cc(C(F)(F)F)ccc1Cl)=C1SCCN1c1ccccc1C#N [Compound 127] | ≥ 50%
53 | N#CC(Sc1cc(C(F)(F)F)ccc1F)=C1SCCN1c1ccccc1F [Compound 131] | ≥ 50%
54 | N#CC(Sc1cc(C(F)(F)F)ccc1F)=C1SCCN1c1ccccc1C(F)(F)F [Compound 133] | ≥ 50%
55 | N#CC(Sc1cc(C(F)(F)F)ccc1Cl)=C1SCCN1c1ccccc1C(F)(F)F [Compound 134] | ≥ 50%
56 | N#CC(Sc1cc(Cl)cc(Cl)c1)=C1SCCN1c1ccccc1 [Compound 135] | ≥ 50%
57 | N#CC(Sc1cc(C(F)(F)F)cc(C(F)(F)F)c1)=C1SCCN1c1ccccc1 [Compound 136] | ≥ 50%
58 | N#CC(Sc1c(F)c(F)cc(F)c1F)=C1SCCN1c1ccccc1 [Compound 137] | ≥ 50%
59 | CCc1cccc(SC(C#N)=C2SCCN2c2ccccc2)c1 [Compound 138] | ≥ 50%
60 | N#CC(Sc1cc(C(F)(F)F)ccc1F)=C1SCCN1c1ccccc1OC(F)(F)F [Compound 139] | ≥ 50%
61 | COc1cc(SC(C#N)=C2SCCN2c2ccccc2)cc(C(F)(F)F)c1 [Compound 142] | ≥ 50%
62 | N#CC(Sc1cc(F)cc(F)c1)=C1SCCN1c1ccccc1 [Compound 143] | ≥ 50%

Row | Structure (SMILES) | percent disease control value
63 | N#CC(Sc1ccccc1)=C1SCCN1c1ccccc1OC(F)(F)F [Compound 144] | ≥ 50%
64 | N#CC(Sc1cc(F)ccc1F)=C1SCCN1c1ccccc1 [Compound 145] | ≥ 50%
65 | Cc1ccc(F)cc1SC(C#N)=C1SCCN1c1ccccc1 [Compound 146] | ≥ 50%
66 | Cc1ccc(Cl)c(SC(C#N)=C2SCCN2c2ccccc2)c1 [Compound 147] | ≥ 50%
67 | Cc1ccc(F)c(SC(C#N)=C2SCCN2c2ccccc2)c1 [Compound 150] | ≥ 50%
68 | CSc1ccccc1N1CCSC1=C(C#N)Sc1ccccc1 [Compound 157] | ≥ 50%
69 | CSc1ccccc1N1CCSC1=C(C#N)Sc1cc(C(F)(F)F)ccc1F [Compound 158] | ≥ 50%
70 | C[S+]([O-])c1ccccc1N1CCSC1=C(C#N)Sc1cc(C(F)(F)F)ccc1F (stereo not shown) [Compound 161] | ≥ 50%
71 | Cc1ccc(Br)cc1SC(C#N)=C1SCCN1c1ccccc1 [Compound 165] | ≥ 50%
72 | CCc1ccccc1N1CCSC1=C(C#N)Sc1cc(C(F)(F)F)ccc1F [Compound 166] | ≥ 50%
73 | CCOc1ccccc1N1CCSC1=C(C#N)Sc1cc(C(F)(F)F)ccc1F [Compound 167] | ≥ 50%
74 | N#CC(Sc1cc(C(F)(F)F)ccc1F)=C1SCCN1c1cc(Cl)ccc1Cl [Compound 168] | ≥ 50%
75 | N#CC(Sc1cc(C(F)(F)F)ccc1F)=C1SCCN1c1ccccc1[N+](=O)[O-] [Compound 169] | ≥ 50%
76 | N#CC(Sc1cc(C(F)(F)F)ccc1F)=C1SCCN1c1c(Cl)cccc1Cl [Compound 170] | ≥ 50%
77 | N#CC(Sc1cccc(C(F)(F)F)c1)=C1SCCN1c1ccccc1 [Compound 172] | ≥ 50%
78 | COc1ccc(C)cc1N1CCSC1=C(C#N)Sc1ccccc1 [Compound 179] | ≥ 50%
79 | COc1ccc(C)c(N2CCSC2=C(C#N)Sc2cc(C(F)(F)F)ccc2F)c1 [Compound 181] | ≥ 50%
80 | CN(C)c1ccccc1N1CCSC1=C(C#N)Sc1cc(C(F)(F)F)ccc1F [Compound 182] | ≥ 50%
81 | COc1ccc(Cl)cc1N1CCSC1=C(C#N)Sc1cc(C(F)(F)F)ccc1F [Compound 183] | ≥ 50%
82 | COc1ccc(OC)c(N2CCSC2=C(C#N)Sc2cc(C(F)(F)F)ccc2F)c1 [Compound 184] | ≥ 50%
83 | Cc1ccc(Cl)cc1N1CCSC1=C(C#N)Sc1ccccc1 [Compound 187] | ≥ 50%
84 | Cc1cccc(C)c1N1CCSC1=C(C#N)Sc1ccccc1 [Compound 188] | ≥ 50%
85 | Cc1cccc(C)c1N1CCSC1=C(C#N)Sc1cc(C(F)(F)F)ccc1F [Compound 190] | ≥ 50%
86 | Cc1ccc(C)c(N2CCSC2=C(C#N)Sc2ccccc2)c1 [Compound 191] | ≥ 50%
87 | N#CC(Sc1cc(C(F)(F)F)ccc1F)=C1SCCN1c1c(F)cccc1F [Compound 192] | ≥ 50%
88 | COc1cccc(N2CCSC2=C(C#N)Sc2cc(C(F)(F)F)ccc2F)c1 [Compound 193] | ≥ 50%
